Reference: publication PMC9537944, “eIF4G1 N-terminal intrinsically disordered domain is a multi-docking station for RNA, Pab1, Pub1, and self-assembly” (Frontiers in Molecular Biosciences, 2022)
Weaker means in comparison with the reference protein, sequence or condition of that experiment. Tags and fusion partners may be left off the protein sequences shown.

Target: T1, eIF4G1 1-82 (Saccharomyces cerevisiae) (UniProt P39935)
T1 sequence (looked up): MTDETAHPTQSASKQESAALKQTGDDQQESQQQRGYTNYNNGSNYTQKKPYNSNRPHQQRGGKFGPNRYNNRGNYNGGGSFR
Assay: NMR (1H-15N HSQC titration)
Details: chemical shift changes about half of those with A14; NMR: 25 mM potassium phosphate pH 6.5, 25 or 150 mM NaCl, 1 mM DTT, 10% D2O, 25 C, 800 MHz (general NMR conditions; not stated specifically for RNA titrations); recombinant protein; residues 1-82

AAAAAAAAAAAA [A12]
binding result: binds more weakly
